Laboratory results published in patent US10508090B2, “Sulfonamides as GPR40- and GPR120-agonists” (DOMPÉ FARMACEUTICI S.P.A., priority 2016, dated 2019).
The name of at least one read-out is uncertain.

How the values were obtained:
[1] = test system: NCI-H716 cells; test: In vitro GLP-1 secretion in differentiated NCI-H716 cells (ELISA); type: cell-based, human; conditions: compound at 100 μM for 30 minutes
Experimental: (§1) GPR120/40 Activation: In Vitro GLP-1 Secretion
(§2) 2×10^5 STC-1 cells were seeded in a 12-plate and 24 hours later were treated with selected compounds. 1×10^6 NCI-H716 cells were differentiated in matrigel-coated 12-plate and treated 48 h hours later.
(§3) The day of the experiment, wells were washed once with 1 ml of PBS and then cells were stimulated with 0.5 ml of DMEM (w/o serum, w/o phenol-red) containing 30 μM of selected compounds in STC1 and 100 μM in differentiated NCIH716 for 30 minutes. DMSO has been used as negative control, α-linolenic acid (ALA) (endogenous agonist) as positive control. After stimulations, supernatants were collected, centrifuged at 4000 rpm for 4′ at 4° C., and used for the GLP1 detection by ELISA.

[2] = test system: STC-1 cells; test: In vitro GLP-1 secretion in STC-1 cells (ELISA); type: cell-based, murine; conditions: compound at 30 μM for 30 minutes
Experimental: as §1, §2, §3

SMILES | GLP-1 RELEASE NCI, fold of increase over DMSO [1] | GLP-1 RELEASE STC-1, fold of increase over DMSO [2]
Cc1cc(F)c(-c2ccccc2)cc1NS(=O)(=O)c1cccc(CCCCCCC(=O)O)c1 [Example 9, 7-(3-(N-(6-fluoro-4-methyl-[1,1′-biphenyl]-3-yl)sulfamoyl)phenyl)heptanoic acid] | 6.23 ± 1.12 fold | –
Cc1cc(F)cc(-c2ccccc2)c1NS(=O)(=O)c1cccc(CCCCCCC(=O)O)c1 [Example 10, 7-(3-(N-(5-fluoro-3-methyl-[1,1′-biphenyl]-2-yl)sulfamoyl)phenyl)heptanoic acid] | 2.46 ± 0.48 fold | 4.74 ± 1.54 fold
